{
  "source": "patent US20220348985",
  "experiment_in_all_cases": "binding assay",
  "key": {"[1]": {"test_system": "thrombin", "conditions": "50 nM each strand, purified native protein"}, "[2]": {"biological_target": "single-strand DNA-binding protein (SSDBP) (UniProt P0AGE0)", "conditions": "25 nM protein, purified recombinant protein"}, "[3]": {"test_system": "hemoglobin", "conditions": "25 nM protein, purified native protein"}, "[4]": {"test_system": "immunoglobulin G (IgG)", "conditions": "25 nM protein, purified native protein"}, "[5]": {"biological_target": "proteinase K (UniProt P06873)", "conditions": "25 nM protein, purified native protein"}, "[6]": {"test_system": "elastase", "conditions": "25 nM protein, purified native protein"}, "[7]": {"conditions": "THR1D: GGTTGGTGTGGTTGG-(Spacer18)5-CGC-D-TCT, D = quinoline blue base surrogate at 4th position from 3' end (D and spacers not shown in listing), THR2: AGATGCG-(Spacer18)5-AGTCCGTGGTAGGGCAGGTTGGGGTGACT, negligible signal, TBS pH 7.4, 10 C, label: quinoline blue (internal, THR1D)"}, "[8]": {"conditions": "Split-THRa: TGGTTGGTTTTTT-(Spacer18)5-CGC-D-TCT, D = quinoline blue at 4th position from 3' end (D and spacers not shown in listing), Split-THRb: AGATGCG-(Spacer18)5-AAAAAAGGTTGGTG, no probe turn-on, TBS with 100 mM KCl, 10 C, label: quinoline blue (internal, Split-THRa)"}},
  "note": "For at least one entry, the source does not settle the construct or the ends of the probe. For part of these data: Negatives hold for the conditions tested.",
  "data": [
    {"sequence": "GGTTGGTGTGGTTGGCGCATCT / AGATGCGAGTCCGTGGTAGGGCAGGTTGGGGTGACT [THR1-F + THR2-T (FRET pair)]", "values": [
      {"measurement": "binding result", "setting": "[1]; (Spacer18)5 between aptamer and 7-nt complementary tail in each strand, 50 nM thrombin, Tris-buffered saline pH 7.4, 10 C, [p98] gives 1.25-fold, label: 3' fluorescein (THR1-F), 5' TAMRA dT (THR2-T)", "result": "binds"}
    ]},
    {"sequence": "GGTTGGTGTGGTTGGCGCTCT / AGATGCGAGTCCGTGGTAGGGCAGGTTGGGGTGACT [THR1D + THR2 (two-epitope FIT-aptamer pair)]", "values": [
      {"measurement": "binding result", "setting": "[2]; THR1D: GGTTGGTGTGGTTGG-(Spacer18)5-CGC-D-TCT, D = quinoline blue base surrogate at 4th position from 3' end (D and spacers not shown in listing), THR2: AGATGCG-(Spacer18)5-AGTCCGTGGTAGGGCAGGTTGGGGTGACT, negligible FIT signal (readout is dye turn-on, not direct binding), TBS pH 7.4, 10 C, label: quinoline blue (internal, THR1D)", "result": "no binding"},
      {"measurement": "binding result", "setting": "[3]; [7]", "result": "no binding"},
      {"measurement": "binding result", "setting": "[4]; [7]", "result": "no binding"},
      {"measurement": "binding result", "setting": "[5]; [7]", "result": "no binding"},
      {"measurement": "binding result", "setting": "[6]; [7]", "result": "no binding"}
    ]},
    {"sequence": "TGGTTGGTTTTTTCGCTCT / AGATGCGAAAAAAGGTTGGTG [Split-THRa + Split-THRb (FIT split aptamer)]", "values": [
      {"measurement": "binding result", "setting": "[2]; Split-THRa: TGGTTGGTTTTTT-(Spacer18)5-CGC-D-TCT, D = quinoline blue at 4th position from 3' end (D and spacers not shown in listing), Split-THRb: AGATGCG-(Spacer18)5-AAAAAAGGTTGGTG, no probe turn-on (readout is dye turn-on, not direct binding), TBS with 100 mM KCl, 10 C, label: quinoline blue (internal, Split-THRa)", "result": "no binding"},
      {"measurement": "binding result", "setting": "[3]; [8]", "result": "no binding"},
      {"measurement": "binding result", "setting": "[4]; [8]", "result": "no binding"},
      {"measurement": "binding result", "setting": "[5]; [8]", "result": "no binding"},
      {"measurement": "binding result", "setting": "[1]; Split-THRa: TGGTTGGTTTTTT-(Spacer18)5-CGC-D-TCT, D = quinoline blue at 4th position from 3' end (D and spacers not shown in listing), Split-THRb: AGATGCG-(Spacer18)5-AAAAAAGGTTGGTG, 200 nM thrombin, Tris-buffered saline with 100 mM KCl pH 7.4, 10 C, LOD 14.76 nM, label: quinoline blue (internal, Split-THRa)", "result": "binds"},
      {"measurement": "binding result", "setting": "[6]; [8]", "result": "no binding"}
    ]}
  ]
}
